Experimental data published in paper doi:10.1101/2024.07.11.602925.
Like-named read-outs stand apart in the source and are kept apart here. These are yes or no findings as the source states them, for the method shown. In cells and extracts the contact can be indirect. These calls come from enrichment with a bait or labelling near it, and not all partners need be listed. Values belong to the molecule of their own block, whether it stands above or below them.

Chains of the proteins cited; added tags and fusions are not shown.
UniProt Q7Z4V5: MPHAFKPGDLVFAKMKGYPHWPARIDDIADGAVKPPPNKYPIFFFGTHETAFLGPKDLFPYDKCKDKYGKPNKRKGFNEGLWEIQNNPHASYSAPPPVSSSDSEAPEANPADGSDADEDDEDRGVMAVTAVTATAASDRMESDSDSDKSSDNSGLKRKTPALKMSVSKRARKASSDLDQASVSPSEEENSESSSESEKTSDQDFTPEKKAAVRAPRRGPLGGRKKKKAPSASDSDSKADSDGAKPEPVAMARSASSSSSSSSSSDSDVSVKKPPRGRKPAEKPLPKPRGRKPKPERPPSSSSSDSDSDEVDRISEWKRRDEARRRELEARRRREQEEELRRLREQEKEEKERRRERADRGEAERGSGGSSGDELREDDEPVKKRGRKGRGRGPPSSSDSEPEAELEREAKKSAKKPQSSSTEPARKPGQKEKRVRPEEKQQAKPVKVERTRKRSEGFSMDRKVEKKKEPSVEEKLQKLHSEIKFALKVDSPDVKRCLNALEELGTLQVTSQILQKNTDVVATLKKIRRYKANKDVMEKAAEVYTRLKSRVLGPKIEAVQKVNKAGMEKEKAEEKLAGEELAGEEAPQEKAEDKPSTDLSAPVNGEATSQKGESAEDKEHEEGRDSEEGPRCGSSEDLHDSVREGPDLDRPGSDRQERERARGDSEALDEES
UniProt Q9Y2A7: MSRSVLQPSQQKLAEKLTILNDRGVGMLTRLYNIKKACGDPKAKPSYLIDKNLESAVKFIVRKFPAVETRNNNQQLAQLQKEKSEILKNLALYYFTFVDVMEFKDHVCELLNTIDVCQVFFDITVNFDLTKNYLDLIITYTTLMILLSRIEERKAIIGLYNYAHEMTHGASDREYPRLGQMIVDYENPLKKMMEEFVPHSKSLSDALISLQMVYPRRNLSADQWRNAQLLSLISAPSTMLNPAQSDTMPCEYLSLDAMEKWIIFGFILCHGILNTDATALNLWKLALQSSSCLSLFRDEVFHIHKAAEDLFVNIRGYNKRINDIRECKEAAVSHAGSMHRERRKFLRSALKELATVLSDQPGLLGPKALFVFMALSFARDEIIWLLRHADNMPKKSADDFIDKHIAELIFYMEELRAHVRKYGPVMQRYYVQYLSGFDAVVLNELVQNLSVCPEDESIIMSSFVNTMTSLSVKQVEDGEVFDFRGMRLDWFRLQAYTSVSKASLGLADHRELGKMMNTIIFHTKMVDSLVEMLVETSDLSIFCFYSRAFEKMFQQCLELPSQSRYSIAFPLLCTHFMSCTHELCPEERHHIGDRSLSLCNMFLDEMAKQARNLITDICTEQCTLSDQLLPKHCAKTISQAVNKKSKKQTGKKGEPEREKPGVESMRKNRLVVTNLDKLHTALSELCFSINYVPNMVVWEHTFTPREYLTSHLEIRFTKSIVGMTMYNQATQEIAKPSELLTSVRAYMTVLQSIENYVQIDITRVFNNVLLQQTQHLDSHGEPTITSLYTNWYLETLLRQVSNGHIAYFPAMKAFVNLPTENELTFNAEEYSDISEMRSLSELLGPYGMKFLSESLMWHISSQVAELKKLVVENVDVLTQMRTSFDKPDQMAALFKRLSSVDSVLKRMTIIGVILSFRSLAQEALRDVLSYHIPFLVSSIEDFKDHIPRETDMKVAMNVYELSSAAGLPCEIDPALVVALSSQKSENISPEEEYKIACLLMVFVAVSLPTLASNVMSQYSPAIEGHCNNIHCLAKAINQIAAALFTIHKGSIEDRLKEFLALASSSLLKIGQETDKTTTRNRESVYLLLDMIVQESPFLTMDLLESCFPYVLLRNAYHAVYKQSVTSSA
UniProt Q9NR12: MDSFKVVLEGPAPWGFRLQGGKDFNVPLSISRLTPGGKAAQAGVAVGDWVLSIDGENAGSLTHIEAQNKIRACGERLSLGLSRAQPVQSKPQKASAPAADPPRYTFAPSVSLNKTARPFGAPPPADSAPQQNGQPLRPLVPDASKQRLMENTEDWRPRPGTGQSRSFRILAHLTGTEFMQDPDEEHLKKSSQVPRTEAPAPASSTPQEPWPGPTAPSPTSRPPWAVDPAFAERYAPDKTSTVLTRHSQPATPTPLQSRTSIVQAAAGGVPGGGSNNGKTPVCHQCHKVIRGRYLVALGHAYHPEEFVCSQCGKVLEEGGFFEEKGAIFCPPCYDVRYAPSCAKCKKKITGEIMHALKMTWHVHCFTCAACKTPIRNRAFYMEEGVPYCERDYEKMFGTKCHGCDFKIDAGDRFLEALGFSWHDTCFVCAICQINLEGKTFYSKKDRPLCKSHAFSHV
UniProt Q9Y3P9: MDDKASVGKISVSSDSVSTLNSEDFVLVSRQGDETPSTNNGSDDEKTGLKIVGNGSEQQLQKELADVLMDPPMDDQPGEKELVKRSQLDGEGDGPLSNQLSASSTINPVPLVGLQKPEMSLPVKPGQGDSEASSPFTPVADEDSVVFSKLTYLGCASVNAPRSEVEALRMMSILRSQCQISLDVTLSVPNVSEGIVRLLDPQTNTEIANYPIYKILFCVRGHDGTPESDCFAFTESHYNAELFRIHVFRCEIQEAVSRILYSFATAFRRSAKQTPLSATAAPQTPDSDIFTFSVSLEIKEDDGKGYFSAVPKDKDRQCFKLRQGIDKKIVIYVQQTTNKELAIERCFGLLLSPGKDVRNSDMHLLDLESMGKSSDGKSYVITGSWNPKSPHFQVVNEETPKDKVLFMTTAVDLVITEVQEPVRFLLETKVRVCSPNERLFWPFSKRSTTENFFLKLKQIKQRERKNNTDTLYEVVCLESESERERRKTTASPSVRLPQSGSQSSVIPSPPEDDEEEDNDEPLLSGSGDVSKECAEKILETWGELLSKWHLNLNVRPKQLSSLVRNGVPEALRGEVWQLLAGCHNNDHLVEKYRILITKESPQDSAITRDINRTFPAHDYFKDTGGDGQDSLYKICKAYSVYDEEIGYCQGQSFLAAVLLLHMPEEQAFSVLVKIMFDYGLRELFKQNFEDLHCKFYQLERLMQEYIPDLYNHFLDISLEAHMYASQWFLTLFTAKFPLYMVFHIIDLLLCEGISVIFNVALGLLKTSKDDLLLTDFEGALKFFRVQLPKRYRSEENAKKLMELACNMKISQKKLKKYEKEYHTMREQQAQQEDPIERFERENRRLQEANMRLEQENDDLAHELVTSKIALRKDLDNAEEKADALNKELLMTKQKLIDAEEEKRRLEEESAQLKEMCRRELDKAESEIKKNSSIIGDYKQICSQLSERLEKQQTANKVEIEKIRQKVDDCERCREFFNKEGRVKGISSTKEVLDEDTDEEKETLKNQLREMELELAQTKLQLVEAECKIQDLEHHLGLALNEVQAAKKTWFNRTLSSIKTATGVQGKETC
UniProt Q4G0F5: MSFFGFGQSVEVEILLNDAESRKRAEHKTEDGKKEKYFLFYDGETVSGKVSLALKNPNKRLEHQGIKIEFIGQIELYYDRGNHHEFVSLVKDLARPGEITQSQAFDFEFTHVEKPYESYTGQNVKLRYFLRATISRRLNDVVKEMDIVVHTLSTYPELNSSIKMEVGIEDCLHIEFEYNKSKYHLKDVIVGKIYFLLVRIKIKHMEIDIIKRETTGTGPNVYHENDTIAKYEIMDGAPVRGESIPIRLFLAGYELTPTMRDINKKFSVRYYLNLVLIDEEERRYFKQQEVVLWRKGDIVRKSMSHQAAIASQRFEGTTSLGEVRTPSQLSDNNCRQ

Experiments:
[1] = molecular target: GST fused to the WT cytosolic tail of APP (649-695) (UniProt P05067); test: affinity purification with mass spectrometry
[2] = molecular target: GST fused to the WT cytosolic tail of APP (649-695) (UniProt P05067); test: affinity purification with mass spectrometry; remark: listed apart in the source

binding [1]: binds
Molecule: HDGFL2 (from UniProt Q7Z4V5 1-671)

binding [1]: binds
Molecule: NCKAP1 (from UniProt Q9Y2A7 1-1128)

binding [1]: binds
Molecule: PDLIM7 (from UniProt Q9NR12 1-457)

binding [1]: binds
Molecule: RABGAP1 (from UniProt Q9Y3P9 1-1069)

binding [1]: binds
Molecule: VPS26A (from UniProt O75436 1-327)

binding [1]: binds
Molecule: VPS26B (from UniProt Q4G0F5 1-336)

binding [2]: binds
B1: cold-inducible RNA-binding protein (CIRBP) (protein, UniProt Q14011 1-172)
chain: MASDEGKLFVGGLSFDTNEQSLEQVFSKYGQISEVVVVKDRETQRSRGFGFVTFENIDDAKDAMMAMNGKSVDGRQIRVDQAGKSSDNRSRGYRGGSAGGRGFFRGGRGRGRGFSRGGGDRGYGGNRFESRSGGYGGSRDYYSSRSQSGGYSDRSSGGSYRDSYDSYATHNE

binding [2]: binds
B2: NUMB (protein, UniProt P49757 1-651)
chain: MNKLRQSFRRKKDVYVPEASRPHQWQTDEEGVRTGKCSFPVKYLGHVEVDESRGMHICEDAVKRLKAERKFFKGFFGKTGKKAVKAVLWVSADGLRVVDEKTKDLIVDQTIEKVSFCAPDRNFDRAFSYICRDGTTRRWICHCFMAVKDTGERLSHAVGCAFAACLERKQKREKECGVTATFDASRTTFTREGSFRVTTATEQAEREEIMKQMQDAKKAETDKIVVGSSVAPGNTAPSPSSPTSPTSDATTSLEMNNPHAIPRRHAPIEQLARQGSFRGFPALSQKMSPFKRQLSLRINELPSTMQRKTDFPIKNAVPEVEGEAESISSLCSQITNAFSTPEDPFSSAPMTKPVTVVAPQSPTFQANGTDSAFHVLAKPAHTALAPVAMPVRETNPWAHAPDAANKEIAATCSGTEWGQSSGAASPGLFQAGHRRTPSEADRWLEEVSKSVRAQQPQASAAPLQPVLQPPPPTAISQPASPFQGNAFLTSQPVPVGVVPALQPAFVPAQSYPVANGMPYPAPNVPVVGITPSQMVANVFGTAGHPQAAHPHQSPSLVRQQTFPHYEASSATTSPFFKPPAQHLNGSAAFNGVDDGRLASADRHTEVPTGTCPVDPFEAQWAALENKSKQRTNPSPTNPFSSDLQKTFEIEL
